A short description of the series: soluble on expression in E. coli; label from the status in PepcDB or PDB records.

This note sets out measurements from the DeepSol protein solubility set.

With “MAANGVATAGRQVSEKEADIQMMLSADVHLGTKNCNYQMERYVFKRRDDGIYIINLGKTWDKLQMAARVIVAIENPKDIIVQSARPYGQRAVLKFAQYTGVNAIAGRHTPGTFTNQMQTSFSEPRLLILTDPRTDHQPIKEGALGNIPTIAFCDTDSPMGFVDIGIPANNKGKHSIGCLFWLLARMVLQMRGTILAAQKWDVMVDLFFYREPEEAKQEGDEEAEVQADYGMVGGDQWTTAQISDAAWSGEVEQPISAAPAVGVTVAAGWEAASVPAAGWE”, the “soluble on expression in E. coli” value was “not soluble”.
